The list shows a part of the results. These are further read-outs of the screen, such as a control signal, another cell line or another target. No call is given for them. Most of these compounds were active or inconclusive in the main read-out, so they are no random draw. Potencies come from curve fits of mixed quality, noted in brackets.
Assay: qHTS Assay to Find Inhibitors of Chronic Active B-Cell Receptor Signaling
Conditions: ABC-DLBCL IkBa-CBG/CBR reporter, luminescence ratio (green luciferase fused to IkBa over red control in TMD8 lymphoma cells), 4 h
In short: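 Concentration-response series (up to 46 uM) were applied to TMD8 dual-reporter cells for 4 h at 37C with doxycycline. Green/red ratio, after filter-overlap correction, defined %Activity; red signal alone was normalised to basal cells and zero luminescence.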

[1] = measured here: CBR red luminescence, cell number
[2] = measured here: IkBa-CBG green luminescence

| Compound | AC50 [1] | AC50 [2] |
| --- | --- | --- |
| Cc1ccc(-c2nnc(-c3ccccc3)c(N3CCOCC3)n2)cc1 | 12.6 µM [falling, single point] |  |
| CSc1ccc(/C=N/NC(=O)c2cccc(Cl)c2)cc1 | 20.6 µM [falling, partial curve] |  |
| Cc1ccccc1-c1nc(CS(=O)CC(=O)NCCCN(C)c2ccccc2)c(C)o1 (configuration not stated) | 35.5 µM [falling, single point] |  |
| Cc1cc(OCC[N+]2(C)CCCCC2)nc2ccccc12 | 0.291 µM [falling, full curve, poor fit] |  |
| COc1ccccc1NC(=O)CSc1nn2c(=O)c(C)nnc2s1 | 35.5 µM [falling, single point] |  |
| CNc1ncc(C(=O)c2ccc(-c3ccccc3)cc2)s1 | 5.62 µM [falling, partial curve] |  |
| CC(=O)Nc1ccc(S(=O)(=O)N2CCN(S(=O)(=O)N3CCCCC3)CC2)cc1 | 0.398 µM [falling, partial curve, poor fit] |  |
| c1ccc(Cn2cc(CN3CCCO3)c(-c3ccc4c(c3)OCO4)n2)cc1 | 35.5 µM [rising, single point] |  |
| COC(=O)c1cccc(NC(=O)c2cc3sccc3n2C)c1 | 0.184 µM [falling, full curve, poor fit] |  |
| Cc1ccc(NC(=O)c2ccc3c(c2)NC(=O)CS3)nc1 | 20.6 µM [falling, single point] |  |
| O=C(COC(=O)[C@@H]1CCCN1C(=O)c1cccs1)NCCc1ccccc1 | 6.51 µM [rising, full curve] |  |
| O=C(Nc1ccccc1N1CCCCC1)c1cccc(F)c1 | 0.731 µM [rising, partial curve, poor fit] |  |
| CCCc1[nH]n(-c2ccc([N+](=O)[O-])cc2)c(=O)c1C=NCCN1CCNCC1 | 0.1 µM [rising, full curve, poor fit] |  |
| CCOC(=O)C(C)Oc1cccc2c(=O)n(CC(=O)NCc3ccc4c(c3)OCO4)ccc12 (configuration not stated) | 2.51 µM [rising, partial curve, poor fit] | 2.51 µM [falling, full curve] |
| O=C(NCc1ccc(N2CCCC2=O)cc1)c1cn(CCc2ccccc2)nn1 | 0.0651 µM [falling, full curve, poor fit] |  |
| COc1ccc2c(c1)c(=O)oc1cc(OCC(=O)NC3CC3)ccc12 | 14.6 µM [rising, partial curve, poor fit] |  |
| Oc1cccc(/C=N/N(Cc2ccccc2)c2ccccc2)c1 | 35.5 µM [falling, partial curve, poor fit] | 35.5 µM [rising, partial curve, poor fit] |
| O=C(O)CSc1ccc2ccccc2n1 | 0.103 µM [rising, full curve, poor fit] |  |
| CC(C)SC1=NC(C)(C)C=C(/C=C/c2ccc(Cl)cc2Cl)N1 | 11.6 µM [falling, partial curve] |  |
| COc1cccc2sc(N(Cc3cccnc3)C(=O)C3CCCCC3)nc12 | 1.78 µM [falling, full curve] |  |
| CC(Oc1ccc(Br)cc1)C(=O)Nc1nc(-c2ccccn2)cs1 (configuration not stated) | 8.91 µM [rising, partial curve, poor fit] | 11.2 µM [falling, single point] |

| Compound | AC50 [1] | AC50 [2] |
| --- | --- | --- |
| O=C(CCC(=O)OCc1cccc(C(=O)Oc2ccccc2)c1)Nc1cccc2ccccc12 | 2.31 µM [rising, full curve, poor fit] |  |
| COc1ccc(Nc2nc(-c3ccccc3O)nc3ccccc23)cc1 | 28.2 µM [falling, single point] |  |
| Cc1ccc(NC(=O)C(c2ccccc2)N2CCN(C(=O)c3ccco3)CC2)cc1Cl (configuration not stated) | 1.16 µM [rising, full curve, poor fit] |  |
| Cc1ccc(C2(C(F)(F)F)NC(=O)N3CCN=C3S2)cc1 (configuration not stated) | 28.2 µM [falling, single point] |  |
| Cc1ccc(NC(=S)NCCc2ccccc2)nc1 | 2.82 µM [rising, full curve] |  |
| O=C(O)CCCCCN=C1CCc2ccccc2N1 | 3.16 µM [falling, full curve, poor fit] |  |
| COc1cccc(/C=C2\CCC(C3CCCC3)C2=O)c1 (configuration not stated) | 12.6 µM [rising, single point] |  |
| O=S(=O)(c1cccc2cccnc12)n1cnc2ccccc21 | 29.1 µM [falling, single point] |  |
| CCCCC1(CCCC)NC(=S)N(Nc2ccc(C)cc2)C1=O | 2.91 µM [rising, single point] |  |
| O=C(CNC(=O)c1cccs1)NCC(=O)OCc1ccc(Cl)cc1 | 35.5 µM [rising, single point] |  |
| Cc1ccc(/C=C/C(=O)NCCCN2CCN(CCCNC(=O)/C=C/c3ccc(C)o3)CC2)o1 | 13 µM [rising, partial curve, poor fit] |  |
| O=C(N/N=C/c1cc(O)ccc1[N+](=O)[O-])c1ccc2c(c1)OCCO2 | 3.55 µM [falling, partial curve] |  |
| Nn1c(=O)[nH]c2c([nH]c3ccccc32)c1=O | 12.6 µM [falling, partial curve, poor fit] |  |
| CC(C)(C)CC(C)(C)NC(=S)NC1CCN(Cc2ccccc2)CC1 | 29.1 µM [falling, single point] |  |
| COc1ccc(-c2nc3ccccc3[nH]2)cc1 | 16.4 µM [falling, single point] |  |
| COc1ccc(-n2c(C)cc(C(=O)COC(=O)c3cc(OC)c(OC)cc3NC(=O)c3cccs3)c2C)cc1 | 32.6 µM [rising, single point] |  |
| COc1ccccc1N(CC(=O)NC1CCCC1)C(=O)CCC(=O)Nc1cc(C)on1 | 1.46 µM [falling, full curve, poor fit] |  |
| CCOc1cc(-c2cn(S(=O)(=O)c3cccc4nsnc34)nc2N)cc(OCC)c1OCC | 32.6 µM [falling, single point] |  |
| CC1CCCCN1C(=O)Cc1ccc(Cl)cc1 (configuration not stated) | 9.2 µM [rising, partial curve, poor fit] |  |
| CCCCOc1ccc(OCCNS(=O)(=O)N(C)C)cc1 | 35.5 µM [rising, single point] |  |
| CCCC1(C(=O)O)NC(c2ccccc2O)C2C(=O)N(c3cccc(Cl)c3)C(=O)C21 (configuration not stated) | 13 µM [rising, single point] |  |

One compound at a time, as listed above:
`CCOc1cc(-c2cn(S(=O)(=O)c3cccc4nsnc34)nc2N)cc(OCC)c1OCC` as listed: AC50 [1]: 32.6 µM [falling, single point]
`Cc1ccc(NC(=O)C(c2ccccc2)N2CCN(C(=O)c3ccco3)CC2)cc1Cl` (configuration not stated) as listed: AC50 [1]: 1.16 µM [rising, full curve, poor fit]
`CC(C)(C)CC(C)(C)NC(=S)NC1CCN(Cc2ccccc2)CC1` as listed: AC50 [1]: 29.1 µM [falling, single point]

(more compounds)

| Compound | AC50 [1] | AC50 [2] |
| --- | --- | --- |
| C/C(=N/OCO/N=C(/C)c1ccc(F)cc1)c1ccc(F)cc1 | 29.1 µM [falling, single point] |  |
| COc1ccc(C(=O)NCc2ccc3c(c2)CCN3C(C)=O)cc1OC | 3.55 µM [falling, partial curve, poor fit] |  |
| COCCCNC(=O)Cn1ccc(N)nc1=O | 1.64 µM [rising, full curve] |  |
| COCC(C)n1c(SCC(=O)Nc2ccc3c(c2)OCCO3)nc2ccccc2c1=O (configuration not stated) | 2.59 µM [rising, partial curve, poor fit] |  |
| O=C(O)CCn1cc(C2CC(c3ccccc3)=NN2c2ccccc2)c(-c2ccccc2)n1 (configuration not stated) | 14.1 µM [falling, single point] |  |
| CCNc1nc(NCC)nc(OCCOC(=O)c2ccccc2)n1 | 3.98 µM [rising, single point] |  |
| CC(C)CCSc1ncnc2c1oc1nc3c(cc12)COC(C)(C)C3 | 4.61 µM [rising, full curve, poor fit] |  |
| Cc1cc(-n2cnc(-c3cn[nH]c3C)n2)no1 | 2.24 µM [falling, full curve, poor fit] |  |
| O=C(CCNc1cccc(F)c1)c1cccc([N+](=O)[O-])c1 | 35.5 µM [falling, single point] |  |
| Cc1ccc2c(c1)/C(=N/N1C(=O)c3ccccc3C1=O)C(=O)N2 | 6.51 µM [rising, single point] |  |
| CCCC1=C(C(=O)OCC)C(c2cccs2)n2ncnc2N1 (configuration not stated) |  | 7.94 µM [rising, partial curve, poor fit] |
| CCC1CCCCN1C(=O)CSc1nnc(-c2ccc(Cl)cc2)o1 (configuration not stated) | 5.17 µM [rising, full curve, poor fit] |  |
| O=C(Nc1ccncc1)Nc1cc(Cl)ccc1Cl | 1.26 µM [rising, full curve, poor fit] |  |
| CCc1nn(CCCN2CCN(c3cccc(Cl)c3)CC2)c(=O)n1CCOc1ccccc1 | 35.5 µM [falling, single point] |  |
| CC(Oc1ccccc1F)C(=O)Nc1ccc2ccccc2c1 (configuration not stated) | 4.61 µM [rising, partial curve, poor fit] |  |
| Cc1csc(=Nc2ccc(S(=O)(=O)N3CCOCC3)cc2)n1Cc1ccco1 | 5.01 µM [rising, partial curve] |  |
| COc1cccc(NC(=O)c2ccccc2-c2nc(-c3ccc(F)cc3)no2)c1 | 20.6 µM [falling, partial curve, poor fit] |  |
| Cc1ccc2nc(-c3ccc(SCC(=O)N4CCc5ccccc54)nc3)[nH]c2c1 |  | 5.8 µM [rising, partial curve, poor fit] |
| COc1ccc(Cl)cc1S(=O)(=O)N1CCC(C(=O)NCCC2=CCCCC2)CC1 | 12.6 µM [falling, partial curve, poor fit] |  |
| CCn1c(SCC(=O)c2ccc(C)cc2)nnc1-c1ccoc1C | 18.4 µM [falling, single point] |  |
| CNc1nc(N/N=C/c2cc3c(cc2[N+](=O)[O-])OCO3)nc(Nc2ccccc2)n1 | 14.1 µM [falling, single point] | 25.1 µM [rising, partial curve, poor fit] |
